A short description of the data set: Fluorescence intensity and detection sensitivity of fluorescent dyes excited by argon laser. The class given is physicochemical. The following applies: excited by argon laser at 488 nm and 514 nm.

In the case of `CCNc1cc2c(cc1C)C1(OC(=O)c3cc(C(=O)ON4C(=O)CCC4=O)ccc31)c1cc(C)c(NCC)cc1O2` [R6G, 5-carboxyrhodamine 6G succinimide ester], the detection sensitivity result was “about 40 amol” and the “order of fluorescence intensities” value was “R110, R6G>TMR>XR”.

For `Nc1ccc2c(-c3cc(C(=O)ON4C(=O)CCC4=O)ccc3C(=O)O)c3ccc(N)cc3[o+]c2c1.O=C(O)C(F)(F)F.O=C([O-])C(F)(F)F` [R110, 5-carboxyrhodamine 110-bis-trifluoroacetate succinimide ester], the detection sensitivity entry is “about 40 amol” and the “order of fluorescence intensities” value was “R110, R6G>TMR>XR”.

Consider `CN(C)c1ccc2c(c1)Oc1cc(N(C)C)ccc1C21OC(=O)c2cc(C(=O)ON3C(=O)CCC3=O)ccc21` [TMR, 5-carboxytetramethylrhodamine succinimide ester], for which the detection sensitivity result was “about 400 amol” and the “order of fluorescence intensities” value was “R110, R6G>TMR>XR”.

Take `O=C(ON1C(=O)CCC1=O)c1ccc(C2=c3cc4c5c(c3Oc3c2cc2c6c3CCCN6CCC2)CCC[N+]=5CCC4)c(C(=O)[O-])c1` [XR, 5-carboxy-X-rhodamine succinimide ester]: the detection sensitivity result is “about 800 amol” and the “order of fluorescence intensities” value is reported as “R110, R6G>TMR>XR”.
